Laboratory results taken from article PMC6663880.
Numbering of substitutions follows the chain as printed. Numbers in names are those of the source. These are yes or no findings as the source states them, for the method shown. Binding seen in cells or lysates may run through a third protein. Some results given as binding are weak or reduced against the parent protein; the word gives no strength. Where a sequence is shown, tags or fusion partners need not be part of it.

T1: RHBDL4mycFLAG (human) (UniProt Q8TEB9)
T1 sequence: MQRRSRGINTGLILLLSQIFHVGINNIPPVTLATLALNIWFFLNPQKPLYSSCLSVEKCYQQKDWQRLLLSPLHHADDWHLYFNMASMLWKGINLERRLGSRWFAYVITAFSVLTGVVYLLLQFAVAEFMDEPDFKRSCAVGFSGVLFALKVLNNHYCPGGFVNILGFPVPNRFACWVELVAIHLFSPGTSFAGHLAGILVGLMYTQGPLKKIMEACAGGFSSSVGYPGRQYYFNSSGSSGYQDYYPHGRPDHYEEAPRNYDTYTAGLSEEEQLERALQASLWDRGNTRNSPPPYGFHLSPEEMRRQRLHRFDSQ

T2: RHBDL4mycFLAG site 7 mutant (Y261F) (human) (UniProt Q8TEB9)
T2 sequence: T1 sequence with Y261F

B1: mCherry-PTP1B WT (enzyme, UniProt P18031 1-435)
chain: MEMEKEFEQIDKSGSWAAIYQDIRHEASDFPCRVAKLPKNKNRNRYRDVSPFDHSRIKLHQEDNDYINASLIKMEEAQRSYILTQGPLPNTCGHFWEMVWEQKSRGVVMLNRVMEKGSLKCAQYWPQKEEKEMIFEDTNLKLTLISEDIKSYYTVRQLELENLTTQETREILHFHYTTWPDFGVPESPASFLNFLFKVRESGSLSPEHGPVVVHCSAGIGRSGTFCLADTCLLLMDKRKDPSSVDIKKVLLEMRKFRMGLIQTADQLRFSYLAVIEGAKFIMGDSSVQDQWKELSHEDLEPPPEHIPPPPRPPKRILEPHNGKCREFFPNHQWVKEETQEDKDCPIKEEKGSPLNAAPYGIESMSQDTEVRSRVVGGSLRGAQAASPAKGEPSLPEKDEDHALSYWKPFLVNMCVATVLTAGAYLCYRFLFNSNT
B2: mCherry-PTP1B D181A (enzyme, UniProt P18031 1-435)
chain: B1 chain with D181A
B3: mCherry-PTP1B D181A/Y46F (enzyme, UniProt P18031 1-435)
chain: B1 chain with Y46F, D181A

Tests used:
RHBDL4mycFLAG (human) [1] = molecular target: T1, RHBDL4mycFLAG (human); assay: co-IP; HEK293 cells transfected with RHBDL4mycFLAG variants; lysis in 1% Triton, 50 mM Tris pH 7.4, 150 mM NaCl; anti-FLAG M2 beads; additional 100 mM NaCl in the wash buffer; blots with anti-p97/VCP, anti-ubiquitin and anti-Lys63 linkage-specific antibodies for the endogenous partners
[2] = molecular target: T2, RHBDL4mycFLAG site 7 mutant (Y261F) (human); assay: as above
RHBDL4mycFLAG (human) [3] = molecular target: T1, RHBDL4mycFLAG (human); assay: co-IP; HEK293 cells co-transfected with mCherry-PTP1B variants and RHBDL4mycFLAG; lysis in 1% Triton, 50 mM Tris pH 7.4, 150 mM NaCl, 2 mM sodium pervanadate, 1 mM sodium fluoride; anti-FLAG M2 beads; blot with anti-mCherry; in washout experiments 4 mM Na3VO4 in the wash buffer

Row | Molecule | binding (RHBDL4mycFLAG (human) [1]) | binding [2] | binding (RHBDL4mycFLAG (human) [3])
1 | p97/VCP (valosin-containing protein) (from UniProt P55072 1-806) | binds | binds | –
2 | B1 | – | – | binds weakly
3 | B2 | – | – | binds
4 | B3 | – | – | binds
